In publication doi:10.1101/2023.02.18.529070 (bioRxiv, 2023) one finds binding data, which are given here for one molecule.

Protein sequences, listed by entry. Tags and fused reporters are not part of them. Residues count along the entry.
UniProt P21860, residues 20-643: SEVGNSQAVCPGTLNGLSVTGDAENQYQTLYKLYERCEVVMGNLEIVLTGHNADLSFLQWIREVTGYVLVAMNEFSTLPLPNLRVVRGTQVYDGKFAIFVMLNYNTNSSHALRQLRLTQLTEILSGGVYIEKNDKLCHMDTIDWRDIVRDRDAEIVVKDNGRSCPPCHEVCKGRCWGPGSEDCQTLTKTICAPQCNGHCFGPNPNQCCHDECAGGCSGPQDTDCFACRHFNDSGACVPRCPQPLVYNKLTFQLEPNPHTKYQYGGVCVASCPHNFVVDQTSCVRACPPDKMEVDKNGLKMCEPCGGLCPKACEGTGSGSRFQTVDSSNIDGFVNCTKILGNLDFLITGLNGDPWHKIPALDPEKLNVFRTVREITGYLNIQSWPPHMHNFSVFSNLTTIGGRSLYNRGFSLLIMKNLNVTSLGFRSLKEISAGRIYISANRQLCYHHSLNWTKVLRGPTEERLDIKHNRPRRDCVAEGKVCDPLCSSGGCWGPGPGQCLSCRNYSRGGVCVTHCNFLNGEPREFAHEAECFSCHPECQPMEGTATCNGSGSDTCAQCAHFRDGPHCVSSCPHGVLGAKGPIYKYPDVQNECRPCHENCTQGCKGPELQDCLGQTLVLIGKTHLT

In this assay the target is recombinant human HER3 extracellular domain (human) (UniProt P21860). Nature of the assay: pull-down.

Results are given in words; binding and its absence hold for the method and conditions named. In cells and extracts the contact can be indirect. Some results given as binding are weak or reduced against the parent protein; the word gives no strength.

B1: recombinant human LRG1 (leucine-rich alpha-2-glycoprotein 1) (ligand, UniProt P02750 36-347, looked up)
chain: VTLSPKDCQVFRSDHGSSISCQPPAEIPGYLPADTVHLAVEFFNLTHLPANLLQGASKLQELHLSSNGLESLSPEFLRPVPQLRVLDLTRNALTGLPPGLFQASATLDTLVLKENQLEVLEVSWLHGLKALGHLDLSGNRLRKLPPGLLANFTLLRTLDLGENQLETLPPDLLRGPLQLERLHLEGNKLQVLGKDLLLPQPDLRYLFLNGNKLARVAAGAFQGLRQLDMLDLSNNSLASVPEGLWASLGQPNWDMRDGFDISGNPWICDQNLSDLYRWLQAQKDKMFSQNDTRCAGPEAVKGQTLLAVAKSQ
Regarding B1, the binding entry is reported as “binds”.
